Measurements reported in publication PMC6092487.
Results are given in words; binding and its absence hold for the method and conditions named. In cells and extracts the contact can be indirect. Some results given as binding are weak or reduced against the parent protein; the word gives no strength.

Sequences of proteins named here, by UniProt entry; tags and fusion partners are left off. Residues count along the entry.
UniProt P23818, residues 19-907: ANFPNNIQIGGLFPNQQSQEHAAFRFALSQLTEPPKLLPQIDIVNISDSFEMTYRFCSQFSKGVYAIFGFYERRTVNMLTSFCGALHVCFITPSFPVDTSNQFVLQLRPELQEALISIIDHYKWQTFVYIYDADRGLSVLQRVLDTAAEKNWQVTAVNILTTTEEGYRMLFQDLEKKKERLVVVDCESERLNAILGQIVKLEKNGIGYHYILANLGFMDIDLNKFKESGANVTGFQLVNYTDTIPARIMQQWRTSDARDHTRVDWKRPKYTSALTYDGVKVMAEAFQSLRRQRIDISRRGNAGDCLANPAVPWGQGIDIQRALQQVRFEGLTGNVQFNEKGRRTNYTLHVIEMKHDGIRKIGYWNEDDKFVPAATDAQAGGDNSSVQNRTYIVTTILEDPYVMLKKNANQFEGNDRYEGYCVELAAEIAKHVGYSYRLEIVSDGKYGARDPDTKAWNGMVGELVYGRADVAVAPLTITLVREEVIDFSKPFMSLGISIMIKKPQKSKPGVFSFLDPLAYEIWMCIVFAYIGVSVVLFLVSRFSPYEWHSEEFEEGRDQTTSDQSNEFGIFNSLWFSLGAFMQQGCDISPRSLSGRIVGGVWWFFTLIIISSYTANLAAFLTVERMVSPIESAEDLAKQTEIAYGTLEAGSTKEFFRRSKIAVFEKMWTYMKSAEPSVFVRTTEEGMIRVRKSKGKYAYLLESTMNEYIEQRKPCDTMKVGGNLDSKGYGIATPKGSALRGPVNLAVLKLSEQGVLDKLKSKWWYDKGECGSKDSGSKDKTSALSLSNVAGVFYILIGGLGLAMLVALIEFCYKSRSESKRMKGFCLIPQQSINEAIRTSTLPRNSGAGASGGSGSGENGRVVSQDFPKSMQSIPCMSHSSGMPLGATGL

Biological target: GluA1 subunit of AMPARs (endogenous, mouse brain) (mouse (endogenous in C57BL/6J brain)) (UniProt P23818)
Test: co-IP; mouse brain (cortex, cerebellum, hippocampus of WT and CPT1C KO mice); membrane pellet solubilised in 1% IGEPAL, 50 mM Tris-HCl pH 7.5, 150 mM NaCl, 10% glycerol, 4°C; 1.5 mg protein with 2 μg anti-GluA1 overnight, Protein-A sepharose; Western blot with anti-CPT1C

binding: binds
B1: carnitine palmitoyltransferase 1C (endogenous, mouse brain) (enzyme, UniProt Q8BGD5 1-798)
chain: MAEAHQASSLLSSLSSDGAEVELSSPVWQEIYLCALRSWKRHLWRVWNDFLAGVVPATPLSWLFLFSTIQLACLLQLDPSLGLMEKIKELLPDWGGQHHQLQGFLSAAVFASCLWGALIFTLHVALRLLLSHHGWLLEPHGAMSSPTKTWLALVRIFSGRHPRLFSFQRALPRQPVPSAQETVRKYLESVRPVLGDDAFDRATALANDFLRLHAPRLQLYLQLKSWCTSNYVSDWWEEFVYLRSRGSLINSTYYMMDFLYVTPTPLQAARAGNAVHTLLLYRHLLNRQEISPTLLMGMRPLCSAQYERMFNTTRIPGVEKDHLRHLQDSRHVAVFHRGRFFRVGTHSPNGLLSPRALEQQFQDILDDPSPACPLEEHLAALTAAPRSMWAQVRESVKTHAATALEAVEGAAFFVSLDSEPAGLTREDPAASLDAYAHALLAGRGHDRWFDKSFTLIVFSNGKLGLSVEHSWADCPVSGHLWEFTLATECFQLGYATDGHCKGHPDPTLPQPQRLQWDLPEQIQPSISLALRGAKTLSGNIDCHVFPFSHFGKSFIKCCHVSSDSFIQLVLQLAHFRDRGQFCLTYESAMTRLFLEGRTETVRSCTREACQFVRAMDNKETDQHCLALFRVAVDKHQALLKAAMSGQGIDRHLFALYIMSRLLHMQSPFLTQVQSQQWLLSTSQVPVQQTHLIDVHNYPDYVSSGGGFGPAHDHGYGISYIFMGENAITFHISSKKSSTETDSHRLGQHIENALLDVASLFRVGQHFKRQFRGENSDYRYNFLSCKTVDPNTPTSSTNL
